Measured data: PubChem BioAssay AID1053208 (Peter MacCallum Cancer Centre, 2014)

Test: 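Synthetic lethal interactions between gene loss and doxorubicin in osteosarcoma cells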 (primary screen)
Cell system: mouse osteosarcoma cells, early-passage culture from an engineered mouse model of fibroblastic bone tumour
Reagents: siRNA pool against mouse genes, 40 nM
Duration: about 120 h (48 h before drug, then 72 h with drug)
Conditions: doxorubicin 100 nM for 72 h, roughly 30-40% inhibitory dose
Detection: 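Luminescent ATP signal taken as viability with or without 100 nM doxorubicin for 72 h; mean of two wells set against non-targeting siRNA and turned into robust z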
Scale: viability z-score with doxorubicin: higher = more viable cells under doxorubicin; viability z-score without drug: higher = more viable cells with knock-down alone
Active means: 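Called active if knock-down leaves viability unchanged without drug (z within -2 to 2) but lowers it with doxorubicin (z at or under -2)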
Shown is an unselected part of about 17,000 deposited reagents. Of all reagents, 788 (4.7%) were called active. 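Calls rest on z-score classes alone; an extra cut-off of viability at most 70% of control was not applied to them.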 Reagents against one gene are numbered here. Not all columns of the deposit are shown.

{"Target gene": "Cldn4", "reagent": 1, "combined z-score class": "no change with or without drug", "viability z-score with doxorubicin": -0.22, "viability z-score without drug": 0.34, "outcome": "inactive"}
{"Target gene": "Ctnna3", "reagent": 1, "combined z-score class": "no change with or without drug", "viability z-score with doxorubicin": 0.79, "viability z-score without drug": 0.51, "outcome": "inactive"}
{"Target gene": "Ankrd55", "reagent": 1, "combined z-score class": "no change with or without drug", "viability z-score with doxorubicin": -0.11, "viability z-score without drug": -0.17, "outcome": "inactive"}
{"Target gene": "Fbxo27", "reagent": 1, "combined z-score class": "no change with or without drug", "viability z-score with doxorubicin": -1.69, "viability z-score without drug": 0.84, "outcome": "inactive"}
{"Target gene": "Pilra", "reagent": 1, "combined z-score class": "high cell count with and without drug", "viability z-score with doxorubicin": 3.26, "viability z-score without drug": 3.37, "outcome": "inactive"}
{"Target gene": "Mrps25", "reagent": 1, "combined z-score class": "low cell count with and without drug", "viability z-score with doxorubicin": -2.7, "viability z-score without drug": -2.53, "outcome": "inactive"}
{"Target gene": "Cyp3a44", "reagent": 1, "combined z-score class": "no change with or without drug", "viability z-score with doxorubicin": 1.01, "viability z-score without drug": 1.69, "outcome": "inactive"}
{"Target gene": "Ap1m1", "reagent": 1, "combined z-score class": "no change with or without drug", "viability z-score with doxorubicin": -0.45, "viability z-score without drug": 1.01, "outcome": "inactive"}
{"Target gene": "2310066E14RIK", "reagent": 1, "combined z-score class": "low cell count with and without drug", "viability z-score with doxorubicin": -3.48, "viability z-score without drug": -2.53, "outcome": "inactive"}
{"Target gene": "Or1j4", "reagent": 1, "combined z-score class": "no change with or without drug", "viability z-score with doxorubicin": -0.45, "viability z-score without drug": 0.51, "outcome": "inactive"}
{"Target gene": "Icam1", "reagent": 1, "combined z-score class": "no change with or without drug", "viability z-score with doxorubicin": 0, "viability z-score without drug": -1.01, "outcome": "inactive"}
{"Target gene": "Adam23", "reagent": 1, "combined z-score class": "no change with or without drug", "viability z-score with doxorubicin": 0.34, "viability z-score without drug": 0.17, "outcome": "inactive"}
{"Target gene": "Adam23", "reagent": 2, "combined z-score class": "low cell count with doxorubicin only", "viability z-score with doxorubicin": -3.04, "viability z-score without drug": 0, "outcome": "active"}
{"Target gene": "Med7", "reagent": 1, "combined z-score class": "no change with or without drug", "viability z-score with doxorubicin": -1.24, "viability z-score without drug": 0.84, "outcome": "inactive"}
{"Target gene": "Magt1", "reagent": 1, "combined z-score class": "no change with or without drug", "viability z-score with doxorubicin": 0.67, "viability z-score without drug": 0.17, "outcome": "inactive"}
{"Target gene": "Erlin1", "reagent": 1, "combined z-score class": "no change with or without drug", "viability z-score with doxorubicin": -0.9, "viability z-score without drug": 0.17, "outcome": "inactive"}
{"Target gene": "Hormad1", "reagent": 1, "combined z-score class": "low cell count with doxorubicin only", "viability z-score with doxorubicin": -4.27, "viability z-score without drug": -0.17, "outcome": "active"}
{"Target gene": "Tmem45a2", "reagent": 1, "combined z-score class": "no change with or without drug", "viability z-score with doxorubicin": -0.45, "viability z-score without drug": 1.52, "outcome": "inactive"}
{"Target gene": "Gdf11", "reagent": 1, "combined z-score class": "no change with or without drug", "viability z-score with doxorubicin": 0.34, "viability z-score without drug": 0.17, "outcome": "inactive"}
{"Target gene": "Rpe65", "reagent": 1, "combined z-score class": "no change with or without drug", "viability z-score with doxorubicin": -0.9, "viability z-score without drug": 0.51, "outcome": "inactive"}
{"Target gene": "Kdm4c", "reagent": 1, "combined z-score class": "no change with or without drug", "viability z-score with doxorubicin": -0.67, "viability z-score without drug": -0.17, "outcome": "inactive"}
{"Target gene": "Kif5a", "reagent": 1, "combined z-score class": "no change with or without drug", "viability z-score with doxorubicin": -1.12, "viability z-score without drug": -0.34, "outcome": "inactive"}
{"Target gene": "Cacnb4", "reagent": 1, "combined z-score class": "no change with or without drug", "viability z-score with doxorubicin": 0.22, "viability z-score without drug": 0, "outcome": "inactive"}
{"Target gene": "Mrps18a", "reagent": 1, "combined z-score class": "no change with or without drug", "viability z-score with doxorubicin": -0.9, "viability z-score without drug": -1.52, "outcome": "inactive"}
{"Target gene": "Sertad2", "reagent": 1, "combined z-score class": "high cell count with and without drug", "viability z-score with doxorubicin": 2.25, "viability z-score without drug": 2.19, "outcome": "inactive"}
{"Target gene": "Tekt1", "reagent": 1, "combined z-score class": "low cell count with and without drug", "viability z-score with doxorubicin": -2.25, "viability z-score without drug": -2.87, "outcome": "inactive"}
{"Target gene": "Adgrl3", "reagent": 1, "combined z-score class": "high cell count without drug only", "viability z-score with doxorubicin": -0.67, "viability z-score without drug": 2.02, "outcome": "inactive"}
{"Target gene": "Mtrex", "reagent": 1, "combined z-score class": "no change with or without drug", "viability z-score with doxorubicin": 0, "viability z-score without drug": -0.17, "outcome": "inactive"}
